# Experimental data as given in the supplement of paper PMC8728848.
# This is one part of the list.
# How the values were obtained:
# Assay in all cases: glycan array binding signal (z-score within array); higher = stronger binding
# Settings in all cases: glycan notation: IUPAC condensed, linker removed
# [1] = target: Gal(b1-2)Gal
# Procedure, shortened: (§1)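 The binding signal is a Z-score computed within each array and averaged over linkers. Arrays of the same protein sequence at different concentrations or buffers were also averaged together. Data originate from 3228 arrays in the Consortium for Functional Glycomics database, kept only where the protein sequence was available.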
# [2] = target: Gal(b1-3)Gal
# Procedure, shortened: as §1
# [3] = target: Gal(b1-3)Gal(b1-4)GlcNAc
# Procedure, shortened: as §1
# [4] = target: Gal(b1-3)GalNAc
# Procedure, shortened: as §1
# [5] = target: Gal(b1-3)GalNAc(a1-3)[Fuc(a1-2)]Gal(b1-4)Glc
# Procedure, shortened: as §1
# [6] = target: Gal(b1-3)GalNAc(a1-3)[Fuc(a1-2)]Gal(b1-4)GlcNAc
# Procedure, shortened: as §1
# [7] = target: Gal(b1-3)GalNAc(b1-3)Gal
# Procedure, shortened: as §1
# [8] = target: Gal(b1-3)GalNAc(b1-3)Gal(a1-4)Gal(b1-4)Glc
# Procedure, shortened: as §1
# [9] = target: Gal(b1-3)GalNAc(b1-4)Gal(b1-4)Glc
# Procedure, shortened: as §1
# [10] = target: Gal(b1-3)GalNAc(b1-4)[Neu5Ac(a2-3)]Gal(b1-4)Glc
# Procedure, shortened: as §1
# [11] = target: Gal(b1-3)GlcNAc
# Procedure, shortened: as §1
# [12] = target: Gal(b1-3)GlcNAc(a1-3)Gal(b1-4)GlcNAc
# Procedure, shortened: as §1
# [13] = target: Gal(b1-3)GlcNAc(a1-6)Gal(b1-4)GlcNAc
# Procedure, shortened: as §1
# [14] = target: Gal(b1-3)GlcNAc(b1-2)Man
# Procedure, shortened: as §1
# [15] = target: Gal(b1-3)GlcNAc(b1-2)Man(a1-3)[Gal(b1-3)GlcNAc(b1-2)Man(a1-6)]Man(b1-4)GlcNAc(b1-4)GlcNAc
# Procedure, shortened: as §1
# [16] = target: Gal(b1-3)GlcNAc(b1-2)Man(a1-3)[Gal(b1-3)GlcNAc(b1-2)Man(a1-6)]Man(b1-4)GlcNAc(b1-4)[Fuc(a1-6)]GlcNAc
# Procedure, shortened: as §1
# [17] = target: Gal(b1-3)GlcNAc(b1-2)Man(a1-3)[GlcNAc(b1-4)][Gal(b1-3)GlcNAc(b1-2)Man(a1-6)]Man(b1-4)GlcNAc(b1-4)GlcNAc
# Procedure, shortened: as §1
# [18] = target: Gal(b1-3)GlcNAc(b1-2)[Gal(b1-3)GlcNAc(b1-6)]Man(a1-6)[Gal(b1-3)GlcNAc(b1-2)Man(a1-3)]Man(b1-4)GlcNAc(b1-4)GlcNAc
# Procedure, shortened: as §1
# [19] = target: Gal(b1-3)GlcNAc(b1-3)Gal(b1-3)GlcNAc
# Procedure, shortened: as §1
# [20] = target: Gal(b1-3)GlcNAc(b1-3)Gal(b1-4)Glc
# Procedure, shortened: as §1
# [21] = target: Gal(b1-3)GlcNAc(b1-3)Gal(b1-4)GlcNAc
# Procedure, shortened: as §1
# [22] = target: Gal(b1-3)GlcNAc(b1-3)Gal(b1-4)GlcNAc(b1-2)Man(a1-3)[Gal(b1-3)GlcNAc(b1-3)Gal(b1-4)GlcNAc(b1-2)Man(a1-6)]Man(b1-4)GlcNAc(b1-4)GlcNAc
# Procedure, shortened: as §1
# [23] = target: Gal(b1-3)GlcNAc(b1-3)Gal(b1-4)GlcNAc(b1-2)[Gal(b1-3)GlcNAc(b1-3)Gal(b1-4)GlcNAc(b1-6)]Man(a1-6)[Gal(b1-3)GlcNAc(b1-3)Gal(b1-4)GlcNAc(b1-2)Man(a1-3)]Man(b1-4)GlcNAc(b1-4)[Fuc(a1-6)]GlcNAc
# Procedure, shortened: as §1
# [24] = target: Gal(b1-3)GlcNAc(b1-3)Gal(b1-4)GlcNAc(b1-3)Gal(b1-4)GlcNAc(b1-2)[Gal(b1-3)GlcNAc(b1-3)Gal(b1-4)GlcNAc(b1-3)Gal(b1-4)GlcNAc(b1-6)]Man(a1-6)[Gal(b1-3)GlcNAc(b1-3)Gal(b1-4)GlcNAc(b1-3)Gal(b1-4)GlcNAc(b1-2)Man(a1-3)]Man(b1-4)GlcNAc(b1-4)[Fuc(a1-6)]GlcNAc
# Procedure, shortened: as §1
# [25] = target: Gal(b1-3)GlcNAc(b1-3)Gal(b1-4)GlcNAc(b1-6)[Gal(b1-3)GlcNAc(b1-3)]Gal(b1-4)Glc
# Procedure, shortened: as §1
# [26] = target: Gal(b1-3)GlcNAc(b1-3)Gal(b1-4)[Fuc(a1-3)]GlcNAc
# Procedure, shortened: as §1
# [27] = target: Gal(b1-3)GlcNAc(b1-3)Gal(b1-4)[Fuc(a1-3)]GlcNAc(b1-6)[Gal(b1-3)GlcNAc(b1-3)]Gal(b1-4)Glc
# Procedure, shortened: as §1
# [28] = target: Gal(b1-3)GlcNAc(b1-3)GalNAc
# Procedure, shortened: as §1
# [29] = target: Gal(b1-3)GlcNAc(b1-6)Gal(b1-4)GlcNAc
# Procedure, shortened: as §1
# [30] = target: Gal(b1-3)GlcNAc(b1-6)GalNAc
# Procedure, shortened: as §1
# [31] = target: Gal(b1-3)GlcNAc(b1-6)[Gal(b1-3)]GalNAc
# Procedure, shortened: as §1
# [32] = target: Gal(b1-3)GlcNAc6S
# Procedure, shortened: as §1
# [33] = target: Gal(b1-3)[Fuc(a1-4)]GlcNAc
# Procedure, shortened: as §1
# [34] = target: Gal(b1-3)[Fuc(a1-4)]GlcNAc(b1-2)Man
# Procedure, shortened: as §1
# [35] = target: Gal(b1-3)[Fuc(a1-4)]GlcNAc(b1-2)Man(a1-3)[Gal(b1-3)[Fuc(a1-4)]GlcNAc(b1-2)Man(a1-6)]Man(b1-4)GlcNAc(b1-4)[Fuc(a1-6)]GlcNAc
# Procedure, shortened: as §1
# [36] = target: Gal(b1-3)[Fuc(a1-4)]GlcNAc(b1-3)Gal(b1-3)[Fuc(a1-4)]GlcNAc
# Procedure, shortened: as §1
# [37] = target: Gal(b1-3)[Fuc(a1-4)]GlcNAc(b1-3)Gal(b1-4)[Fuc(a1-3)]GlcNAc
# Procedure, shortened: as §1
# [38] = target: Gal(b1-3)[Fuc(a1-4)]GlcNAc(b1-6)GalNAc
# Procedure, shortened: as §1
# [39] = target: Gal(b1-3)[GlcNAc(b1-6)]GalNAc
# Procedure, shortened: as §1
# [40] = target: Gal(b1-3)[Neu5Ac(a2-6)]GalNAc
# Procedure, shortened: as §1
# [41] = target: Gal(b1-3)[Neu5Ac(a2-6)]GlcNAc(b1-4)Gal(b1-4)Glc
# Procedure, shortened: as §1
# [42] = target: Gal(b1-3)[Neu5Ac(b2-6)]GalNAc
# Procedure, shortened: as §1
# [43] = target: Gal(b1-4)Gal
# Procedure, shortened: as §1
# [44] = target: Gal(b1-4)GalNAc(a1-3)[Fuc(a1-2)]Gal(b1-4)GlcNAc
# Procedure, shortened: as §1
# [45] = target: Gal(b1-4)GalNAc(b1-3)[Fuc(a1-2)]Gal(b1-4)GlcNAc
# Procedure, shortened: as §1
binder,measurement,setting,value
Mermaid1 (Stilbonema majum) (protein) MGSSHHHHHHSSGLVPRGSHMAASGWLRSPQGTVVKLYRRSLSWSKADEFCKDVDGRLVVDRTADMHLFLIKNVLKEKKSRVWVGLRRTAPHSRTWIWSDGTRQNEDDLDANLWLRDEPNDAAGEEECALFMYSPWEKAWGLNDYLCRGGCRSYQFICEKWIR,glycan array binding signal (z-score),[1],0.189
same,glycan array binding signal (z-score),[2],1.56
same,glycan array binding signal (z-score),[3],0.711
same,glycan array binding signal (z-score),[4],2.5
same,glycan array binding signal (z-score),[5],0.47
same,glycan array binding signal (z-score),[6],0.877
same,glycan array binding signal (z-score),[7],-0.806
same,glycan array binding signal (z-score),[8],-0.503
same,glycan array binding signal (z-score),[9],-0.441
same,glycan array binding signal (z-score),[10],0.137
same,glycan array binding signal (z-score),[11],-0.62
same,glycan array binding signal (z-score),[12],-0.574
same,glycan array binding signal (z-score),[13],0.067
same,glycan array binding signal (z-score),[14],-0.474
same,glycan array binding signal (z-score),[15],0.438
same,glycan array binding signal (z-score),[16],0.098
same,glycan array binding signal (z-score),[17],-0.487
same,glycan array binding signal (z-score),[18],-0.787
same,glycan array binding signal (z-score),[19],-0.336
same,glycan array binding signal (z-score),[20],-0.562
same,glycan array binding signal (z-score),[21],-0.048
same,glycan array binding signal (z-score),[22],-0.024
same,glycan array binding signal (z-score),[23],4.98
same,glycan array binding signal (z-score),[24],6.8
same,glycan array binding signal (z-score),[25],-0.457
same,glycan array binding signal (z-score),[26],-0.845
same,glycan array binding signal (z-score),[27],-0.624
same,glycan array binding signal (z-score),[28],-0.72
same,glycan array binding signal (z-score),[29],-0.416
same,glycan array binding signal (z-score),[30],0.045
same,glycan array binding signal (z-score),[31],0.436
same,glycan array binding signal (z-score),[32],-0.573
same,glycan array binding signal (z-score),[33],0.262
same,glycan array binding signal (z-score),[34],0.769
same,glycan array binding signal (z-score),[35],1.16
same,glycan array binding signal (z-score),[36],0.007
same,glycan array binding signal (z-score),[37],-0.78
same,glycan array binding signal (z-score),[38],-0.626
same,glycan array binding signal (z-score),[39],-0.535
same,glycan array binding signal (z-score),[40],-0.195
same,glycan array binding signal (z-score),[41],-0.953
same,glycan array binding signal (z-score),[42],-0.405
same,glycan array binding signal (z-score),[43],3.2
same,glycan array binding signal (z-score),[44],1.62
same,glycan array binding signal (z-score),[45],1.83

# Reformatted tab-delimited: part of the list above
binder	measurement	setting	value
Mermaid1 (Stilbonema majum) (protein) MGSSHHHHHHSSGLVPRGSHMAASGWLRSPQGTVVKLYRRSLSWSKADEFCKDVDGRLVVDRTADMHLFLIKNVLKEKKSRVWVGLRRTAPHSRTWIWSDGTRQNEDDLDANLWLRDEPNDAAGEEECALFMYSPWEKAWGLNDYLCRGGCRSYQFICEKWIR	glycan array binding signal (z-score)	[6]	0.877
same	glycan array binding signal (z-score)	[7]	-0.806
same	glycan array binding signal (z-score)	[9]	-0.441
same	glycan array binding signal (z-score)	[11]	-0.62
same	glycan array binding signal (z-score)	[12]	-0.574
same	glycan array binding signal (z-score)	[14]	-0.474
same	glycan array binding signal (z-score)	[15]	0.438
same	glycan array binding signal (z-score)	[27]	-0.624
same	glycan array binding signal (z-score)	[36]	0.007
same	glycan array binding signal (z-score)	[41]	-0.953
same	glycan array binding signal (z-score)	[42]	-0.405
same	glycan array binding signal (z-score)	[43]	3.2
same	glycan array binding signal (z-score)	[44]	1.62
